Data on 1 compound can be found in patent US20050191245A1, “Nasal administration of calcium channel, blockers for treatment of hypertension and other cardiovascular disorders” (priority 2004, published 2005).

The test system of the data set is male Sprague-Dawley rats. The note with it: rat, in vivo.

As to `COC(=O)C1=C(C)NC(C)=C(C(=O)OC)C1c1ccccc1[N+](=O)[O-]` [nifedipine], the “total distance traveled, drug treated groups compared to vehicle treated group” value is on record as “no significant difference”.
